Results are given in words; binding and its absence hold for the method and conditions named. Binding seen in cells or lysates may run through a third protein. Some binding calls cover weakened binding; strength is not graded here.
Biological target: PP1^H66K-PNUTS fusion: Avitag PP1α (1-304, H66K) linked by SGSGS to PNUTS (408-940) (UniProt P62136)
Assay: co-IP

The chains behind the UniProt entries cited, without tags or fusion partners. Where a name states a change or a piece, a line headed by the entry shows the natural chain unless it says otherwise.
UniProt P62136: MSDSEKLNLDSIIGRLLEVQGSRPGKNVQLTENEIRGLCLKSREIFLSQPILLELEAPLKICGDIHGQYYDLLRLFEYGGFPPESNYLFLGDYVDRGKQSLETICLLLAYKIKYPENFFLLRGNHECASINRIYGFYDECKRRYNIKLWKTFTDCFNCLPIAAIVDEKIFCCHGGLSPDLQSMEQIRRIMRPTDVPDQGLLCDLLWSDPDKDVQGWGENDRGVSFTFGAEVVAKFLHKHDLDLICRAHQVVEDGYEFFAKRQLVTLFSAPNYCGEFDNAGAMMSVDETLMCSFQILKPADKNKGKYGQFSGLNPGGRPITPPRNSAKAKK
UniProt Q6UXN9: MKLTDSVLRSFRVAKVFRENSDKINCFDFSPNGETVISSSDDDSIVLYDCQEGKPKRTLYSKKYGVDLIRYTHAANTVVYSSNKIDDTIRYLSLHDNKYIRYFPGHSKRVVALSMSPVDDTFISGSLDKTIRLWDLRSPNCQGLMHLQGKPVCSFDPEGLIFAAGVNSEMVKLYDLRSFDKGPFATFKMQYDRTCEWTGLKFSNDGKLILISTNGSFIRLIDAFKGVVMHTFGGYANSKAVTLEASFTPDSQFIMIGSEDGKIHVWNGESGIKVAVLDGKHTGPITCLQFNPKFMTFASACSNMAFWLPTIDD

binding: binds
Substance: WDR82 (from UniProt Q6UXN9 1-313)

— paper doi:10.1101/2024.07.12.603302
